Measurements published in patent US20050164943A1, “Tumor suppressor gene polypeptides and related nucleic acids, host cells, compositions, and methods of use in inhibition of cell growth, modulation of gene expression, and enhancement of immune-response inducing effect of a vaccine” (Department of Health and Human Services, priority 2002, published 2005).
Some of these results come from one statement about several compounds together.

Tested on: WM-115 cells
Assay: Antitumor activity on subcutaneous WM-115 tumors in nude mice, intratumoral injection
Assay type: in vivo, Balb/c nu/nu female mice
Conditions: intratumoral 5 μg/kg, three times over a two-week period; then daily over 5 days

Sequence	reduction in tumor size [fold]
NCEHFVNELRYG [SEQ ID NO: 3]	3 to 13
RNCEHFVAQLRYG [SEQ ID NO: 4]	3 to 13
